Structures are written as SMILES. Where a name gives a salt, the structure may show the parent alone. The list shows a part of the results. Single values are uncertain here, since repeats match poorly.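 PR50, a 50-repeat proline–arginine dipeptide protein from C9ORF72 (ALS/FTD), was expressed by transfection in U-2 OS human cells stably carrying a GFP sensor with import and classical export signals. Per-well nuclear-minus-cytoplasm GFP, normalized between in-plate DMSO (low) and PR-only (high), was scored versus other test wells; compounds well below zero were hits reversing PR.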

The assay has as its system U-2 OS NCT-C biosensor cells expressing PR50. Nature of the assay: Z-score of normalised NCT-C biosensor translocation index in PR50-expressing cells; higher = more nuclear biosensor (more disrupted nuclear export). The settings on record: 3 µM; 24 h.
Take `Cc1cc(C)cc(OCC2CNC(=O)O2)c1` (centres undefined) [Metaxalone]: the Z-score is inactive: 0.0605. Consider `CC(=O)O[C@H]1C[C@@H]2CC[C@@H]3[C@H](CC[C@@]4(C)[C@H]3C[C@H]([N+]3(C)CCCCC3)[C@@H]4OC(C)=O)[C@@]2(C)C[C@@H]1N1CCCCC1` [Vecuronium Bromide], for which the Z-score was inactive: 0.194.

As to `O=C(O)CCNc1cc(N2CCc3ccccc3CC2)nc(-c2cccnc2)n1`, the Z-score is active: -2.09.

Regarding `CCCCCCCC/C=C\CCCCCCCC(=O)NCCO` [N-Oleoyl ethanolamine], the Z-score was inactive: 0.827.

Regarding `C[C@@H](O)[C@H]1C(=O)N2C(C(=O)O)=C(S[C@@H]3CN[C@H](C(=O)N(C)C)C3)[C@H](C)[C@H]12` [Meropenem], the Z-score is inactive: 0.614. Turning to `C=C1CCN([C@H](C)[C@](O)(Cn2cncn2)c2ccc(F)cc2F)CC1` [Efinaconazole], the Z-score was inactive: -0.195.

Turning to `CCN(CC)C(=O)/C(C#N)=C/c1cc(O)c(O)c([N+](=O)[O-])c1` [Entacapone], the Z-score was inactive: -0.521. For `C[C@]12C=CC(=O)C=C1CC[C@H]1[C@@H]3C[C@@H](O)[C@](O)(C(=O)CO)[C@@]3(C)C[C@H](O)[C@@]12F` [Triamcinolone] the value was inactive: -1.09; for `CC1(C)O[C@@H]2C[C@H]3[C@@H]4CCC5=CC(=O)CC[C@]5(C)[C@@]4(F)[C@@H](O)C[C@]3(C)[C@]2(C(=O)CCl)O1` [Halcinonide], inactive: -0.983; for `CNCCCC12CCC(c3ccccc31)c1ccccc12` [Maprotiline hydrochloride], inactive: 0.672. Take `CNCCCC12CCC(c3ccccc31)c1ccccc12` [Maprotiline·HCl]: the Z-score is inactive: 0.664. For `O=C1Cc2c([nH]c3ccc(Br)cc23)-c2ccccc2N1` [Kenpaullone], the Z-score is inactive: 0.12. With `Cc1coc2c1C(=O)C(=O)c1c-2ccc2c1CCCC2(C)C` [Tanshinone IIA] the figure was inactive: 0.558. In the case of `CO/N=C(\C(=O)N[C@@H]1C(=O)N2C(C(=O)[O-])=C(C[N+]3(C)CCCC3)CS[C@H]12)c1csc(N)n1` [Cefepime·2HCl Hydrate], the Z-score is inactive: 0.434. `CCOC(=O)CCNc1cc(N2CCc3ccccc3CC2)nc(-c2cccnc2)n1`: the Z-score was active: -2.47.

With `OC(c1cc(C(F)(F)F)nc2c(C(F)(F)F)cccc12)C1CCCCN1` (centres undefined) [Mefloquine·HCl], the Z-score was inactive: 0.0195. As to `C[n+]1ccccc1CC(=O)c1ccc(Br)cc1`, the Z-score is inactive: -1.1. Take `NC[C@@H](O)c1ccc(O)c(O)c1` (racemic) [(+-)-  Norepinephrine (+)bitartrate salt]: the Z-score was inactive: 0.303. Turning to `NC[C@@H](O)c1ccc(O)c(O)c1` [L(-)-  Norepinephrine bitartrate], the Z-score is inactive: -0.0288.

The record behind these values is the supplement of paper PMC8616043.
